Results are given in words; binding and its absence hold for the method and conditions named. Binding seen in cells or lysates may run through a third protein. Some binding calls cover weakened binding; strength is not graded here.
Molecular target: enhancer of zeste homolog 2 (EZH2) (mouse (endogenous in mouse MSCs)) (UniProt Q61188)
Assay: co-IP; endogenous EZH2 immunoprecipitated with anti-EZH2 antibody from lysates of control and Hottip silenced MSCs; protein A + G agarose, 4 °C; western blotting for CDK1 and Akt

Chains of the proteins cited; added tags and fusions are not shown.
UniProt Q61188: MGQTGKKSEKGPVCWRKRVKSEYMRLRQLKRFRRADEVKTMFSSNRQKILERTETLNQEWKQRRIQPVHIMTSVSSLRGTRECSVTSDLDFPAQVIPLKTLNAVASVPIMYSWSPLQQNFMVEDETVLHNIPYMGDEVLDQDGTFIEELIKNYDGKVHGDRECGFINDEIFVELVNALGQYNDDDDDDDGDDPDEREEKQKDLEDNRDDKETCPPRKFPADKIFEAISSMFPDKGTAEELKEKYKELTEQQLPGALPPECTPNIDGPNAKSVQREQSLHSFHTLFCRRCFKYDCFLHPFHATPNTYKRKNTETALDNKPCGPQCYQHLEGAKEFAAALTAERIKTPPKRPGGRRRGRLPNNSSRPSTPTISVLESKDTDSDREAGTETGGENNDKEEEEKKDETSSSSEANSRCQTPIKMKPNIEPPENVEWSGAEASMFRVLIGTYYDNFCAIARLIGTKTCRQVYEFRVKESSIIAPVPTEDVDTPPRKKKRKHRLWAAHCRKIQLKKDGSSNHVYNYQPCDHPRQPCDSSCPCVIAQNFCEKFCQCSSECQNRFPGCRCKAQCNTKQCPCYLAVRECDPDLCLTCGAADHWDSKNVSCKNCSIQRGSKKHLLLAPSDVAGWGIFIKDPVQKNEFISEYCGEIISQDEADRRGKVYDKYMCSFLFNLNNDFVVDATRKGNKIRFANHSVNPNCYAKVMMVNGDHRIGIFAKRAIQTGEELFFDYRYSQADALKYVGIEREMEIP
UniProt P11440: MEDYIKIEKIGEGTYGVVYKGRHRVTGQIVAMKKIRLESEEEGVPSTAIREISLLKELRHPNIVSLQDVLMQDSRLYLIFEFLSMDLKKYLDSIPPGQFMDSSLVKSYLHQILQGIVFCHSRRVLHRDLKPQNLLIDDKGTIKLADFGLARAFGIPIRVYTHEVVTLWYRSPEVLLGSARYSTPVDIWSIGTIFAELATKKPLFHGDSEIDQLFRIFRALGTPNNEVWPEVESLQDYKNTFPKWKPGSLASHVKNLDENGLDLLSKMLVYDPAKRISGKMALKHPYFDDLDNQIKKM

binding: binds
Substance: CDK1 (from UniProt P11440 1-297)

From article PMC11985131
